These are yes or no findings as the source states them, for the method shown. Some entries that bind do so weakly or less than the wild type.
B1: anti-human TNFR2 mouse monoclonal antibody 16D2 (antibody, V domains shown)
VH: EVQLQQSEPELVKPGASVKIPCKASGYTFTDYNMDWVKQSHGKSLEWIGDINPNNGVTIYNQKFKGKATLTVDKSSSTAYMELRSLTSEDTAVYYCVILEYFDYWGQGTTLTVSS
VL: DIVMTQSTSSMSVSLGDTVSITCHASQGISSNIGWLQQKPGKSFKGLIYHGTKLEDGVPSRFSGSGSGADYSLTISSLESEDFADYYCVQYAQFPRTFGGGTKLEIK
B2: anti-human TNFR2 mouse monoclonal antibody 27F6 (antibody, V domains shown)
VH: EVQLQQSGTVLARPGASVKMSCKTSGYTFTSYWMHWVKQRPGQGLEWIGTIYPGNSDTSYNQKFKGKAKLTAVTSASTAYMELNSLTNEDSAVFYCTRENLLLRSYFFDYWGQGTTLTVSS
VL: DIVMTQSPASLAVSLGQRATISCKASQSVDYDGDSYLNWYQQKPGQPPKLLIYAASNLPSGIPARFSGSGSGTDFTLNIHPVEEEDAATYYCQQSNEDPRTFGGGTKLEIK
B3: anti-human TNFR2 mouse monoclonal antibody 29A1 (antibody, V domains shown)
VH: QVQLQQSGAEVVRPGASVTLSCKASGYTFSDYEMHWVKQTPVHGLEWIGAIDPETGDTAYNQKFKDKARVTADKSSSTAYMELRSLTSEDSAVYYCTRDIHYYGSSLSYFDYWGQGTTLTVSS
VL: DIVMTQSQKFMSTSVGDRVSVTCKASQNVGTNVAWYQQKPGQSPKVMIYSASYRYSGAPDRFTGSGSGTDFTLTVNNVQSEDLAEYFCQQYKTYPYTFGGGTKLEIE
B4: anti-human TNFR2 mouse monoclonal antibody 7F2 (antibody, V domains shown)
VH: QVTLKESGPGILQPSQTLSLTCSFSGFSLNTFGLGVGWIRQPSGKGLEWLTHIWWNDDKYYNPALKSRLTISRDTSENLVFLKIANVDTADTATYYCARIEGLRRFDYWGQGTTLTVSS
VL: DIQMTQSPSSLSASLGGKVTITCKTSQDINKFIAWYQHKPGKGPRLLIHYTSTLQPGIPSRFSGSGSGRDYSFSISDLEPEDIATYYCLQYANLWAFGGGTKLEIK
B5: anti-human TNFR2 mouse monoclonal antibody 12E12 (antibody, V domains shown)
VH: EVQLQQSGAELVKPGASVKLSCTVSGFNIKDFYIHWVKQRPEQGLEWIGRVDPEDGNTEYAPNFQDRATMTTDTSSNTAYLQLSSLTSVDTAVYYCSTWDGFSYFDYWGLGTTLTVSS
VL: QAVVTQESALTTSPGETVTLTCRSSTGPVTTNNYANWVQEKPDHLFTGLIGGTNDRAPGVPARFSGSLIGDKTALTITGTQTEDEAVYFCALWYRNHWVFGGGTKLTVL
B6: anti-human TNFR2 mouse monoclonal antibody 13F5 (antibody, V domains shown)
VH: QVQLQQSGAELVRPGTSVKMSCKASGYTFTNYWIGWTKQRPGHGLEWIGDIFPGGDFTNYNEKFKGKATLTADKSSSTAYLQFSSLTSEDSAIYYCSRRRFTTIVAPGFDYWGQGTTLTVSS
VL: QLVLTQSSSASFSLGASAKLTCTLSSQHSMYTIEWYQQQPLKPPKFVMELKKDGSHSTGDGIPDRFSGSSSGADRYLNISNIQPEDEAIYICGVGDTIKEQFVYVFGGGTEVTVL
B7: anti-human TNFR2 mouse monoclonal antibody 18A2 (antibody, V domains shown)
VH: DVQLQESGPGLVKPSQSLSLTCSVTGYSITSGYYWNWIRQFPGNKLEWMGYISYDGSNNYNPSLKKRISITRDTSKNQFFLKLNSVTTEDTATYYCTGGSGTSWGQGTLVTVSA
VL: DIVMTQSHKFMSTSVGDRVSITCKASQDVTTGIAWYQQKPGQSPKLLIYSASNRFTGVPDRFTGSGSGTDFTFTISSVQAEDLAVYFCQQHYSTPFTFGSGTKLEIQ

Amino acid sequences for entries named in this document (tags omitted). Residues count along the entry.
UniProt P20333, residues 23-257: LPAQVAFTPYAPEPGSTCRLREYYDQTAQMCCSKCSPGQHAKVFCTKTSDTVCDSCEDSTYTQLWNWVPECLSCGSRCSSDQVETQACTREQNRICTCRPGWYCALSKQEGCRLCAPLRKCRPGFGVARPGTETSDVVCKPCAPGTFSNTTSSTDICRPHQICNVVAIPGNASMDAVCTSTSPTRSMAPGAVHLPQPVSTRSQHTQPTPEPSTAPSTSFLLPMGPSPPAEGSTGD

Target: recombinant human TNFR2 antigen (Kangdai, batch number A100114U) (human) (UniProt P20333)
Experiment: ELISA, coated recombinant human TNFR2

Row | Binder | binding
1 | B1 | binds
2 | B2 | binds
3 | B3 | binds
4 | B4 | binds
5 | B5 | binds
6 | B6 | binds
7 | B7 | binds
